Data published in the supplement of paper PMC8728848.
This is one part of the list.

Tests used:
Experiment in all cases: glycan array binding signal (z-score within array); higher = stronger binding
Conditions in all cases: glycan notation: IUPAC condensed, linker removed
[1] = target: GlcNAc(a1-4)Gal(b1-3)GlcNAc
In short: (§1)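 Arrays were curated from the Consortium for Functional Glycomics database, 3228 in total, and kept only where the protein sequence was available. Binding is expressed as a within-array Z-score. This score was averaged across arrays of the same protein sequence at different concentrations or buffers and across linkers, and negative values can be read as non-binding.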

[2] = target: GlcNAc(a1-4)Gal(b1-4)GalNAc
In short: as §1

[3] = target: GlcNAc(a1-4)Gal(b1-4)GlcNAc
In short: as §1

[4] = target: GlcNAc(a1-4)Gal(b1-4)GlcNAc(b1-3)Gal(b1-4)Glc
In short: as §1

[5] = target: GlcNAc(a1-4)Gal(b1-4)GlcNAc(b1-3)Gal(b1-4)GlcNAc
In short: as §1

[6] = target: GlcNAc(a1-4)Gal(b1-4)GlcNAc(b1-3)Gal(b1-4)GlcNAc(b1-3)Gal(b1-4)GlcNAc
In short: as §1

[7] = target: GlcNAc(a1-4)Gal(b1-4)GlcNAc(b1-3)Gal(b1-4)[Fuc(a1-3)]GlcNAc(b1-3)Gal(b1-4)[Fuc(a1-3)]GlcNAc
In short: as §1

[8] = target: GlcNAc(a1-6)Gal(b1-4)GlcNAc
In short: as §1

[9] = target: GlcNAc(b1-2)Gal(b1-3)GalNAc
In short: as §1

[10] = target: GlcNAc(b1-2)Man(a1-3)[GlcNAc(b1-2)Man(a1-6)]Man(b1-4)GlcNAc(b1-4)GlcNAc
In short: as §1

[11] = target: GlcNAc(b1-2)Man(a1-3)[GlcNAc(b1-2)Man(a1-6)]Man(b1-4)GlcNAc(b1-4)[Fuc(a1-6)]GlcNAc
In short: as §1

[12] = target: GlcNAc(b1-2)Man(a1-3)[GlcNAc(b1-4)][GlcNAc(b1-2)Man(a1-6)]Man(b1-4)GlcNAc(b1-4)GlcNAc
In short: as §1

[13] = target: GlcNAc(b1-2)Man(a1-3)[GlcNAc(b1-4)][GlcNAc(b1-2)Man(a1-6)]Man(b1-4)GlcNAc(b1-4)[Fuc(a1-6)]GlcNAc
In short: as §1

[14] = target: GlcNAc(b1-2)[GlcNAc(b1-4)]Man(a1-3)[GlcNAc(b1-2)Man(a1-6)]Man(b1-4)GlcNAc(b1-4)GlcNAc
In short: as §1

[15] = target: GlcNAc(b1-2)[GlcNAc(b1-4)]Man(a1-3)[GlcNAc(b1-4)][GlcNAc(b1-2)Man(a1-6)]Man(b1-4)GlcNAc(b1-4)GlcNAc
In short: as §1

[16] = target: GlcNAc(b1-2)[GlcNAc(b1-4)]Man(a1-3)[GlcNAc(b1-4)][GlcNAc(b1-2)[GlcNAc(b1-6)]Man(a1-6)]Man(b1-4)GlcNAc(b1-4)GlcNAc
In short: as §1

[17] = target: GlcNAc(b1-2)[GlcNAc(b1-4)]Man(a1-3)[GlcNAc(b1-4)][GlcNAc(b1-2)[GlcNAc(b1-6)]Man(a1-6)]Man(b1-4)GlcNAc(b1-4)[Fuc(a1-6)]GlcNAc
In short: as §1

[18] = target: GlcNAc(b1-2)[GlcNAc(b1-6)]Man(a1-6)[GlcNAc(b1-2)Man(a1-3)]Man(b1-4)GlcNAc(b1-4)GlcNAc
In short: as §1

[19] = target: GlcNAc(b1-2)[GlcNAc(b1-6)]Man(a1-6)[GlcNAc(b1-2)Man(a1-3)]Man(b1-4)GlcNAc(b1-4)[Fuc(a1-6)]GlcNAc
In short: as §1

[20] = target: GlcNAc(b1-2)[GlcNAc(b1-6)]Man(a1-6)[GlcNAc(b1-4)][GlcNAc(b1-2)Man(a1-3)]Man(b1-4)GlcNAc(b1-4)GlcNAc
In short: as §1

GlcNAc(b1-3)Fuc = target: GlcNAc(b1-3)Fuc
In short: as §1

GlcNAc(b1-3)Gal = target: GlcNAc(b1-3)Gal
In short: as §1

[21] = target: GlcNAc(b1-3)Gal(b1-3)GalNAc
In short: as §1

GlcNAc(b1-3)Gal(b1-4)Glc = target: GlcNAc(b1-3)Gal(b1-4)Glc
In short: as §1

[22] = target: GlcNAc(b1-3)Gal(b1-4)GlcNAc
In short: as §1

[23] = target: GlcNAc(b1-3)Gal(b1-4)GlcNAc(b1-2)Man(a1-3)[GlcNAc(b1-3)Gal(b1-4)GlcNAc(b1-2)Man(a1-6)]Man(b1-4)GlcNAc(b1-4)GlcNAc
In short: as §1

[24] = target: GlcNAc(b1-3)Gal(b1-4)GlcNAc(b1-2)Man(a1-3)[GlcNAc(b1-3)Gal(b1-4)GlcNAc(b1-2)Man(a1-6)]Man(b1-4)GlcNAc(b1-4)[Fuc(a1-6)]GlcNAc
In short: as §1

[25] = target: GlcNAc(b1-3)Gal(b1-4)GlcNAc(b1-2)[GlcNAc(b1-3)Gal(b1-4)GlcNAc(b1-6)]Man(a1-6)[GlcNAc(b1-3)Gal(b1-4)GlcNAc(b1-2)Man(a1-3)]Man(b1-4)GlcNAc(b1-4)GlcNAc
In short: as §1

[26] = target: GlcNAc(b1-3)Gal(b1-4)GlcNAc(b1-3)Gal(b1-4)GlcNAc
In short: as §1

[27] = target: GlcNAc(b1-3)Gal(b1-4)GlcNAc(b1-3)Gal(b1-4)GlcNAc(b1-2)Man(a1-3)[GlcNAc(b1-3)Gal(b1-4)GlcNAc(b1-3)Gal(b1-4)GlcNAc(b1-2)Man(a1-6)]Man(b1-4)GlcNAc(b1-4)GlcNAc
In short: as §1

[28] = target: GlcNAc(b1-3)Gal(b1-4)GlcNAc(b1-3)Gal(b1-4)GlcNAc(b1-2)Man(a1-3)[GlcNAc(b1-3)Gal(b1-4)GlcNAc(b1-3)Gal(b1-4)GlcNAc(b1-2)Man(a1-6)]Man(b1-4)GlcNAc(b1-4)[Fuc(a1-6)]GlcNAc
In short: as §1

[29] = target: GlcNAc(b1-3)Gal(b1-4)GlcNAc(b1-3)Gal(b1-4)GlcNAc(b1-2)[GlcNAc(b1-3)Gal(b1-4)GlcNAc(b1-3)Gal(b1-4)GlcNAc(b1-6)]Man(a1-6)[GlcNAc(b1-3)Gal(b1-4)GlcNAc(b1-3)Gal(b1-4)GlcNAc(b1-2)Man(a1-3)]Man(b1-4)GlcNAc(b1-4)[Fuc(a1-6)]GlcNAc
In short: as §1

[30] = target: GlcNAc(b1-3)Gal(b1-4)GlcNAc(b1-3)Gal(b1-4)GlcNAc(b1-3)Gal(b1-4)GlcNAc(b1-2)Man(a1-3)[GlcNAc(b1-3)Gal(b1-4)GlcNAc(b1-3)Gal(b1-4)GlcNAc(b1-3)Gal(b1-4)GlcNAc(b1-2)Man(a1-6)]Man(b1-4)GlcNAc(b1-4)GlcNAc
In short: as §1

[31] = target: GlcNAc(b1-3)Gal(b1-4)GlcNAc(b1-3)Gal(b1-4)GlcNAc(b1-3)Gal(b1-4)GlcNAc(b1-2)Man(a1-3)[GlcNAc(b1-3)Gal(b1-4)GlcNAc(b1-3)Gal(b1-4)GlcNAc(b1-3)Gal(b1-4)GlcNAc(b1-2)Man(a1-6)]Man(b1-4)GlcNAc(b1-4)[Fuc(a1-6)]GlcNAc
In short: as §1

[32] = target: GlcNAc(b1-3)Gal(b1-4)GlcNAc(b1-3)Gal(b1-4)GlcNAc(b1-3)Gal(b1-4)GlcNAc(b1-2)[GlcNAc(b1-3)Gal(b1-4)GlcNAc(b1-3)Gal(b1-4)GlcNAc(b1-3)Gal(b1-4)GlcNAc(b1-6)]Man(a1-6)[GlcNAc(b1-3)Gal(b1-4)GlcNAc(b1-3)Gal(b1-4)GlcNAc(b1-3)Gal(b1-4)GlcNAc(b1-2)Man(a1-3)]Man(b1-4)GlcNAc(b1-4)[Fuc(a1-6)]GlcNAc
In short: as §1

[33] = target: GlcNAc(b1-3)Gal(b1-4)GlcNAc(b1-3)Gal(b1-4)GlcNAc(b1-3)Gal(b1-4)GlcNAc(b1-3)Gal(b1-4)GlcNAc(b1-2)Man(a1-3)[GlcNAc(b1-3)Gal(b1-4)GlcNAc(b1-3)Gal(b1-4)GlcNAc(b1-3)Gal(b1-4)GlcNAc(b1-3)Gal(b1-4)GlcNAc(b1-2)Man(a1-6)]Man(b1-4)GlcNAc(b1-4)GlcNAc
In short: as §1

[34] = target: GlcNAc(b1-3)Gal(b1-4)GlcNAc(b1-3)Gal(b1-4)GlcNAc(b1-3)Gal(b1-4)GlcNAc(b1-3)Gal(b1-4)GlcNAc(b1-2)Man(a1-3)[GlcNAc(b1-3)Gal(b1-4)GlcNAc(b1-3)Gal(b1-4)GlcNAc(b1-3)Gal(b1-4)GlcNAc(b1-3)Gal(b1-4)GlcNAc(b1-2)Man(a1-6)]Man(b1-4)GlcNAc(b1-4)[Fuc(a1-6)]GlcNAc
In short: as §1

[35] = target: GlcNAc(b1-3)Gal(b1-4)GlcNAc(b1-3)Gal(b1-4)GlcNAc(b1-3)Gal(b1-4)GlcNAc(b1-3)Gal(b1-4)GlcNAc(b1-2)[GlcNAc(b1-3)Gal(b1-4)GlcNAc(b1-3)Gal(b1-4)GlcNAc(b1-3)Gal(b1-4)GlcNAc(b1-3)Gal(b1-4)GlcNAc(b1-6)]Man(a1-6)[GlcNAc(b1-3)Gal(b1-4)GlcNAc(b1-3)Gal(b1-4)GlcNAc(b1-3)Gal(b1-4)GlcNAc(b1-3)Gal(b1-4)GlcNAc(b1-2)Man(a1-3)]Man(b1-4)GlcNAc(b1-4)[Fuc(a1-6)]GlcNAc
In short: as §1

B1: SspB C123 (Streptococcus gordonii), Q54186 (protein)
chain: MAHFHYSSLLAQPQINKEIKNEDGVDIDRTLVAKQSIGKFELKTEALTAGRPKTTSFVLVDPLPTGYKFDLDATKAASTGFDTTYDEASHTVTFKATDETLATYNADLTKPVETLHPTVVGRVLNDGATYTNNFTLTVNDAYGIKSNVVRVTTPGKPNDPDNPNNNYIKPTKVNKNKEGLNIDGKEVLAGSTNYYELTWDLDQYKGDKSSKEAIQNGFYYVDDYPEEALDVRPDLVKVADEKGNQVSGVSVQQYDSLEAAPKKVQDLLKKANITVKGAFQLFSADNPEEFYKQYVSTGTSLVITDPMTVKSEFGKTGGKYENKAYQIDFGNGYATEVVVNNVPKITPKKDVTVSLDPTSENLDGQTVQLYQTFNYRLIGGFIPQNHSEELEDYSFVDDYDQAGDQYTGNYKTFSSLNLTMKDGSVIKAGTDLTSQTTAETDATNGIVTVRFKEDFLQKISLDSPFQAETYLQMRRIAIGTFENTYVNTVNKVAYASAAALEHHHHHH
glycan array binding signal (z-score) [1]: -0.755 | glycan array binding signal (z-score) [2]: 0.672 | glycan array binding signal (z-score) [3]: -1.85 | glycan array binding signal (z-score) [4]: -0.583 | glycan array binding signal (z-score) [5]: 0.032 | glycan array binding signal (z-score) [6]: -1.02 | glycan array binding signal (z-score) [7]: 0.575 | glycan array binding signal (z-score) [8]: 1.46 | glycan array binding signal (z-score) [9]: -0.188 | glycan array binding signal (z-score) [10]: -0.534 | glycan array binding signal (z-score) [11]: 1.53 | glycan array binding signal (z-score) [12]: 1.06 | glycan array binding signal (z-score) [13]: -0.492 | glycan array binding signal (z-score) [14]: -1.03 | glycan array binding signal (z-score) [15]: -1.11 | glycan array binding signal (z-score) [16]: -1.27 | glycan array binding signal (z-score) [17]: -0.632 | glycan array binding signal (z-score) [18]: 1.83 | glycan array binding signal (z-score) [19]: -0.643 | glycan array binding signal (z-score) [20]: -0.514 | glycan array binding signal (z-score) (GlcNAc(b1-3)Fuc): -0.912 | glycan array binding signal (z-score) (GlcNAc(b1-3)Gal): 0.925 | glycan array binding signal (z-score) [21]: -0.32 | glycan array binding signal (z-score) (GlcNAc(b1-3)Gal(b1-4)Glc): 0.216 | glycan array binding signal (z-score) [22]: -1.06 | glycan array binding signal (z-score) [23]: -0.235 | glycan array binding signal (z-score) [24]: -0.345 | glycan array binding signal (z-score) [25]: 1.16 | glycan array binding signal (z-score) [26]: -0.453 | glycan array binding signal (z-score) [27]: -0.12 | glycan array binding signal (z-score) [28]: 0.678 | glycan array binding signal (z-score) [29]: 0.558 | glycan array binding signal (z-score) [30]: 0.327 | glycan array binding signal (z-score) [31]: 0.372 | glycan array binding signal (z-score) [32]: -0.324 | glycan array binding signal (z-score) [33]: 1 | glycan array binding signal (z-score) [34]: -0.074 | glycan array binding signal (z-score) [35]: 0.594
